PubChem BioAssay AID1053209 | Peter MacCallum Cancer Centre, 2014
In all, the deposit lists about 1,580 reagents; shown is an unselected part. 207 of them (13%) count as active. 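Rows are single siRNAs; four siRNAs per gene were tested, a gene counting as confirmed only when at least two agree.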 The numbers tell different reagents against one gene apart. Further read-outs or replicates are left out here.

Screen: 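Knock-downs that sensitise mouse osteosarcoma cells to doxorubicin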 (follow-up of hits)
System: mouse primary osteosarcoma cells
Reagents: single siRNA against mouse genes, 25 nM (text also states 40 nM)
Timing: about 120 h (48 h before drug, then 72 h with drug)
Challenge: doxorubicin 100 nM (about IC30-40), added 48 h after transfection, for 72 h
Measurement: 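Viability measured by ATP luminescence with and without doxorubicin, each replicate scaled to non-targeting siRNA NT1, averaged over two replicates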
Reading the numbers: viability with doxorubicin, vs NT1: higher = more viable cells under doxorubicin; viability without drug, vs NT1: higher = more viable cells without drug
Hit rule: 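Active when doxorubicin viability is at most 0.7 of NT1 and drug-free viability lies between 0.7 and 1.1, class LC dox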

| Gene | siRNA no. | combined effect class | viability with doxorubicin, vs NT1 | viability without drug, vs NT1 | outcome |
| --- | --- | --- | --- | --- | --- |
| Pik3cb | 1 | normal viability with and without drug | 0.9 | 0.9 | inactive |
| Pik3cb | 2 | high viability only with doxorubicin | 1.1 | 0.98 | inactive |
| Pik3cb | 3 | normal viability with and without drug | 1.07 | 1.04 | inactive |
| Pik3cb | 4 | normal viability with and without drug | 1.02 | 0.92 | inactive |
| Rab4a (RAB4A, member RAS oncogene family) | 1 | normal viability with and without drug | 0.94 | 0.94 | inactive |
| Rab4a (RAB4A, member RAS oncogene family) | 2 | high viability only with doxorubicin | 1.12 | 1.02 | inactive |
| Rab4a (RAB4A, member RAS oncogene family) | 3 | normal viability with and without drug | 0.95 | 0.94 | inactive |
| Rab4a (RAB4A, member RAS oncogene family) | 4 | normal viability with and without drug | 0.79 | 0.94 | inactive |
| Rpl35 (ribosomal protein L35) | 1 | low viability only with doxorubicin; normal without drug | 0.58 | 0.85 | active |
| Rpl35 (ribosomal protein L35) | 2 | low viability with and without drug | 0.2 | 0.34 | inactive |
| Rpl35 (ribosomal protein L35) | 3 | low viability only with doxorubicin; normal without drug | 0.66 | 0.78 | active |
| Rpl35 (ribosomal protein L35) | 4 | low viability with and without drug | 0.26 | 0.5 | inactive |
| Rasgrp1 (RAS guanyl releasing protein 1) | 1 | high viability only without drug | 1.05 | 1.15 | inactive |
| Rasgrp1 (RAS guanyl releasing protein 1) | 2 | normal viability with and without drug | 0.99 | 0.93 | inactive |
| Rasgrp1 (RAS guanyl releasing protein 1) | 3 | normal viability with and without drug | 0.98 | 1 | inactive |
| Rasgrp1 (RAS guanyl releasing protein 1) | 4 | normal viability with and without drug | 0.94 | 1.08 | inactive |
| Sf3a1 (splicing factor 3a, subunit 1) | 1 | low viability with and without drug | 0.33 | 0.48 | inactive |
| Sf3a1 (splicing factor 3a, subunit 1) | 2 | low viability with and without drug | 0.19 | 0.55 | inactive |
| Sf3a1 (splicing factor 3a, subunit 1) | 3 | low viability only with doxorubicin; normal without drug | 0.43 | 0.72 | active |
| Sf3a1 (splicing factor 3a, subunit 1) | 4 | low viability with and without drug | 0.13 | 0.32 | inactive |
| Rnpepl1 (arginyl aminopeptidase (aminopeptidase B)-like 1) | 1 | high viability only with doxorubicin | 1.15 | 1.07 | inactive |
| Rnpepl1 (arginyl aminopeptidase (aminopeptidase B)-like 1) | 2 | low viability with and without drug | 0.3 | 0.56 | inactive |
| Rnpepl1 (arginyl aminopeptidase (aminopeptidase B)-like 1) | 3 | high viability only without drug | 0.93 | 1.15 | inactive |
| Rnpepl1 (arginyl aminopeptidase (aminopeptidase B)-like 1) | 4 | normal viability with and without drug | 1.02 | 0.93 | inactive |
| Psmc1 (protease (prosome, macropain) 26S subunit, ATPase 1) | 1 | low viability with and without drug | 0.49 | 0.59 | inactive |
| Psmc1 (protease (prosome, macropain) 26S subunit, ATPase 1) | 2 | low viability with and without drug | 0.15 | 0.44 | inactive |
| Psmc1 (protease (prosome, macropain) 26S subunit, ATPase 1) | 3 | low viability with and without drug | 0.08 | 0.38 | inactive |
| Psmc1 (protease (prosome, macropain) 26S subunit, ATPase 1) | 4 | low viability with and without drug | 0.22 | 0.5 | inactive |
| Gramd1a (GRAM domain containing 1A) | 1 | low viability with and without drug | 0.48 | 0.52 | inactive |
| Gramd1a (GRAM domain containing 1A) | 2 | normal viability with and without drug | 0.91 | 0.96 | inactive |
| Gramd1a (GRAM domain containing 1A) | 3 | normal viability with and without drug | 1 | 0.98 | inactive |
| Gramd1a (GRAM domain containing 1A) | 4 | normal viability with and without drug | 1.04 | 1.02 | inactive |
| E2f2 (E2F transcription factor 2) | 1 | normal viability with and without drug | 1.06 | 1 | inactive |
| E2f2 (E2F transcription factor 2) | 2 | normal viability with and without drug | 0.92 | 0.92 | inactive |
| E2f2 (E2F transcription factor 2) | 3 | normal viability with and without drug | 1.09 | 1.02 | inactive |
| E2f2 (E2F transcription factor 2) | 4 | normal viability with and without drug | 1.01 | 0.94 | inactive |
| Rpl32 (ribosomal protein L32) | 1 | low viability with and without drug | 0.44 | 0.52 | inactive |
| Rpl32 (ribosomal protein L32) | 2 | low viability with and without drug | 0.18 | 0.22 | inactive |
| Rpl32 (ribosomal protein L32) | 3 | low viability with and without drug | 0.3 | 0.62 | inactive |
| Rpl32 (ribosomal protein L32) | 4 | low viability with and without drug | 0.22 | 0.34 | inactive |

4 of these entries in another layout:
Gene	siRNA no.	combined effect class	viability with doxorubicin, vs NT1	viability without drug, vs NT1	outcome
Rab4a (RAB4A, member RAS oncogene family)	4	normal viability with and without drug	0.79	0.94	inactive
Rpl35 (ribosomal protein L35)	1	low viability only with doxorubicin; normal without drug	0.58	0.85	active
Rpl35 (ribosomal protein L35)	2	low viability with and without drug	0.2	0.34	inactive
Rpl35 (ribosomal protein L35)	3	low viability only with doxorubicin; normal without drug	0.66	0.78	active

The listing continues.
| Gene | siRNA no. | combined effect class | viability with doxorubicin, vs NT1 | viability without drug, vs NT1 | outcome |
| --- | --- | --- | --- | --- | --- |
| Xirp1 (xin actin-binding repeat containing 1) | 1 | low viability only with doxorubicin; normal without drug | 0.69 | 0.98 | active |
| Xirp1 (xin actin-binding repeat containing 1) | 2 | normal viability with and without drug | 0.98 | 0.96 | inactive |
| Xirp1 (xin actin-binding repeat containing 1) | 3 | normal viability with and without drug | 0.96 | 1.01 | inactive |
| Xirp1 (xin actin-binding repeat containing 1) | 4 | normal viability with and without drug | 0.88 | 1.07 | inactive |
| Psmc2 (proteasome (prosome, macropain) 26S subunit, ATPase 2) | 1 | normal viability with and without drug | 1.04 | 0.95 | inactive |
| Psmc2 (proteasome (prosome, macropain) 26S subunit, ATPase 2) | 2 | low viability with and without drug | 0.12 | 0.3 | inactive |
| Psmc2 (proteasome (prosome, macropain) 26S subunit, ATPase 2) | 3 | low viability with and without drug | 0.36 | 0.58 | inactive |
| Psmc2 (proteasome (prosome, macropain) 26S subunit, ATPase 2) | 4 | low viability with and without drug | 0.22 | 0.46 | inactive |
| Rnf121 (ring finger protein 121) | 1 | normal viability with and without drug | 0.83 | 1.01 | inactive |
| Rnf121 (ring finger protein 121) | 2 | high viability only with doxorubicin | 1.12 | 1 | inactive |
| Rnf121 (ring finger protein 121) | 3 | normal viability with and without drug | 0.86 | 0.92 | inactive |
| Rnf121 (ring finger protein 121) | 4 | normal viability with and without drug | 1.06 | 1.02 | inactive |
| Fau (FAU ubiquitin like and ribosomal protein S30 fusion) | 1 | low viability with and without drug | 0.32 | 0.36 | inactive |
| Fau (FAU ubiquitin like and ribosomal protein S30 fusion) | 2 | low viability with and without drug | 0.51 | 0.68 | inactive |
| Fau (FAU ubiquitin like and ribosomal protein S30 fusion) | 3 | low viability with and without drug | 0.5 | 0.66 | inactive |
| Fau (FAU ubiquitin like and ribosomal protein S30 fusion) | 4 | low viability with and without drug | 0.57 | 0.6 | inactive |
| Nup107 (nucleoporin 107) | 1 | low viability with and without drug | 0.43 | 0.66 | inactive |
| Nup107 (nucleoporin 107) | 2 | normal viability with and without drug | 0.76 | 0.88 | inactive |
| Nup107 (nucleoporin 107) | 3 | low viability only with doxorubicin; normal without drug | 0.44 | 0.78 | active |
| Nup107 (nucleoporin 107) | 4 | low viability only with doxorubicin; normal without drug | 0.7 | 0.88 | active |
| Lrrc8a (leucine rich repeat containing 8A VRAC subunit A) | 1 | low viability only with doxorubicin; normal without drug | 0.64 | 0.73 | active |
| Lrrc8a (leucine rich repeat containing 8A VRAC subunit A) | 2 | normal viability with and without drug | 1.02 | 0.98 | inactive |
| Lrrc8a (leucine rich repeat containing 8A VRAC subunit A) | 3 | normal viability with and without drug | 0.84 | 0.85 | inactive |
| Lrrc8a (leucine rich repeat containing 8A VRAC subunit A) | 4 | normal viability with and without drug | 1.09 | 1.08 | inactive |
| Cpq (carboxypeptidase Q) | 1 | normal viability with and without drug | 1.04 | 0.97 | inactive |
| Cpq (carboxypeptidase Q) | 2 | normal viability with and without drug | 0.76 | 0.88 | inactive |
| Cpq (carboxypeptidase Q) | 3 | normal viability with and without drug | 0.92 | 0.96 | inactive |
| Cpq (carboxypeptidase Q) | 4 | normal viability with and without drug | 1.07 | 0.85 | inactive |
